Experimental data as given in PubChem BioAssay AID220 (DTP/NCI, 2004).
The list shows only some results of the screen, not a fair sample: it is rich in T/C values a quarter to a half above the control, in often repeated tests (any T/C) and in doses without a T/C. Further doses and runs are listed elsewhere. T/C is the treated group as % of the vehicle group. Schedule codes are those of the source, read here as Q, the interval in days (D) or hours (H), X, the number of doses. Some T/C values carry the count of animals alive at the toxicity check (mostly the fifth day); without a count, all were alive then. Some entries give survivors of the animals treated and no T/C: the source files T/C as zero there, which appears to mark a toxic dose or a test without result, not a measured value. Counts of survivors are from the toxicity check (mostly the fifth day) where no day follows; animals may have died later. Some entries hold several experiments; the results are listed from low to high. Some structures stand for samples that the source files as different forms (salt, stereo form or complex); doses refer to the form tested. Starred links: 1 amine or outer side, 2 acyl side, 3 side chain; linkers in the order of their positions; H or OH if unused. Positions of bridges follow the written chain, without caps; N, C: chain ends. Non-standard residues stand in square brackets, D forms with d. Residues, ends and D or L forms follow the SMILES beside them. Chains are numbered I, II in the order given. Actinocin(9to1) = Cc1c2oc3c(C)ccc(C(=O)[*:1])c3nc-2c(C(=O)[*:2])c(N)c1=O; aThr = C[C@H](O)[C@H](N)C(=O)O; NMeV = CN[C@H](C(=O)O)C(C)C; Sar = CNCC(=O)O

System: CD8F1 mice, subcutaneous mammary adenocarcinoma, T/C%
Assay: NCI In Vivo Anticancer Drug Screen. Data for tumor model Mammary Adenocarcinoma CD8F1 (subcutaneous) in CD8F1
Conditions: higher T/C = larger tumour
Summary of the method: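 Transplantable tumors were established in mice, animals were dosed with compound or vehicle, and survival or tumor size was then measured in both groups. The treated result was divided by the control result.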

COc1cc2c(c(OC)c1OC)-c1ccc(OC)c(=O)cc1[C@@H](NC(C)=O)CC2
survivor count (T/C endpoint: median tumor weight change, dose: 6.0 mg/kg/injection, schedule: Q01DX001 (ip), vehicle: saline): 1 of 10 on day 26 | survivor count (T/C endpoint: median tumor weight change, dose: 6.0 mg/kg/injection, schedule: Q01DX001 (ip), vehicle: suspension in saline): 0 of 10 on day 29 | survivor count (T/C endpoint: median tumor weight change, dose: 12.0 mg/kg/injection, schedule: Q01DX001 (ip), vehicle: saline): 1 of 10 on day 26 | survivor count (T/C endpoint: median tumor weight change, dose: 12.0 mg/kg/injection, schedule: Q01DX001 (ip), vehicle: suspension in saline): 0 of 10 on day 29 | survivor count (T/C endpoint: median tumor weight change, dose: 12.5 mg/kg/injection, schedule: Q01DX001 (ip), vehicle: saline): 0 of 10 on day 28 | survivor count (T/C endpoint: median tumor weight change, dose: 24.0 mg/kg/injection, schedule: Q01DX001 (ip), vehicle: suspension in saline): 0 of 10 on day 29 | survivor count (T/C endpoint: median tumor weight change, dose: 25.0 mg/kg/injection, schedule: Q01DX001 (ip), vehicle: saline): 0 of 10 on day 28 | survivor count (T/C endpoint: median tumor weight change, dose: 48.0 mg/kg/injection, schedule: Q01DX001 (ip), vehicle: suspension in saline): 0 of 10 on day 29

Cc1c2oc3c(C)ccc(C(=O)N[C@@H]4C(=O)N[C@H](C(C)C)C(=O)N5CCC[C@H]5C(=O)N(C)CC(=O)N(C)[C@@H](C(C)C)C(=O)O[C@H]4C)c3nc-2c(C(=O)N[C@@H]2C(=O)N[C@H](C(C)C)C(=O)N3CCC[C@H]3C(=O)N(C)CC(=O)N(C)[C@@H](C(C)C)C(=O)O[C@H]2C)c(N)c1=O (I: [aThr][dV]P[Sar][NMeV] / II: [aThr][dV]P[Sar][NMeV]; ester I:1-I:C, II:1-II:C; linker I:N-II:N via Actinocin(9to1))
T/C (T/C endpoint: mean tumor weight, dose: 0.02 mg/kg/injection, schedule: Q01DX009 (ip), vehicle: saline + alcohol, evaluated on day 31): 125 % of control | T/C (T/C endpoint: mean tumor weight, dose: 0.05 mg/kg/injection, schedule: Q07DX007 (ip), vehicle: saline, evaluated on day 50): 134 % of control | T/C (T/C endpoint: median tumor weight (est.), dose: 0.03 mg/kg/injection, schedule: Q07DX005 (ip), vehicle: saline, evaluated on day 30): 146 % of control | survivor count (T/C endpoint: median tumor weight (est.), dose: 400.0 micrograms/kg/injection, schedule: Q07DX005 (ip), vehicle: saline): 6 of 10 on day 30 | survivor count (T/C endpoint: median tumor weight change, dose: 2.0 mg/kg/injection, schedule: Q01DX001 (ip), vehicle: saline): 0 of 10 on day 26 and 4 of 10 on day 28

CCCCCCCCCCS(=O)CC(CO)NC(=O)/C=C/c1c(C)[nH]c(=O)[nH]c1=O (stereo not given)
T/C (T/C endpoint: median tumor weight (est.), dose: 6.0 mg/kg/injection, schedule: Q07DX005 (ip), vehicle: saline with Tween-80, evaluated on day 30): 148 % of control [9 of 10 alive on day 30] | T/C (T/C endpoint: median tumor weight (est.), dose: 12.0 mg/kg/injection, schedule: Q07DX005 (ip), vehicle: saline with Tween-80, evaluated on day 30): 144 % of control

COC(=O)C(N)Cc1ccc(O)c(O)c1 (stereo not given)
T/C (T/C endpoint: median tumor weight (est.), dose: 50.0 mg/kg/injection, schedule: Q07DX005 (ip), vehicle: saline, evaluated on day 30): 132 % of control | T/C (T/C endpoint: median tumor weight (est.), dose: 200.0 mg/kg/injection, schedule: Q07DX005 (ip), vehicle: saline, evaluated on day 30): 133 % of control | survivor count (T/C endpoint: median tumor weight (est.), dose: 1600.0 mg/kg/injection, schedule: Q07DX005 (ip), vehicle: saline): 5 of 10 on day 30

CS(=O)(=O)OCCN(CCOS(C)(=O)=O)c1ccc(C=Nc2ccc(-c3csc(COc4ccccc4)n3)cc2)cc1
T/C (T/C endpoint: median tumor weight (est.), dose: 50.0 mg/kg/injection, schedule: Q07DX005 (ip), vehicle: Klucel (hydroxypropylcellulose) (HPC), evaluated on day 30): 140 % of control | survivor count (T/C endpoint: median tumor weight (est.), dose: 200.0 mg/kg/injection, schedule: Q07DX005 (ip), vehicle: Klucel (hydroxypropylcellulose) (HPC)): 6 of 10 on day 30

COP12(OCCO1)SC(C(F)(F)F)=C(C(F)(F)F)S2
survivor count (T/C endpoint: median tumor weight (est.), dose: 800.0 mg/kg/injection, schedule: Q07DX005 (ip), vehicle: saline): 0 of 10 on day 30

CCOC(=O)Nc1cc2c(c(N)n1)N=C(c1ccccc1)CN2
survivor count (T/C endpoint: median tumor weight change, dose: 25.0 mg/kg/injection, schedule: Q01DX001 (ip), vehicle: saline with Tween-80): 2 of 10 on day 29 | survivor count (T/C endpoint: median tumor weight change, dose: 50.0 mg/kg/injection, schedule: Q01DX001 (ip), vehicle: saline with Tween-80): 0 of 10 on day 29 | survivor count (T/C endpoint: median tumor weight change, dose: 100.0 mg/kg/injection, schedule: Q01DX001 (ip), vehicle: saline with Tween-80): 0 of 10 on day 29

CS(C)=O
T/C (T/C endpoint: median tumor weight (est.), dose: 1.5 grams/kg/injection, schedule: Q07DX005 (ip), vehicle: saline, evaluated on day 32): 145 % of control | T/C (T/C endpoint: median tumor weight (est.), dose: 3.0 grams/kg/injection, schedule: Q07DX005 (ip), vehicle: saline, evaluated on day 30): 133 % of control [7 of 10 alive]

CC/C(=C(/CC)c1ccc(O)cc1)c1ccc(O)cc1
survivor count (T/C endpoint: median tumor weight (est.), dose: 400.0 mg/kg/injection, schedule: Q07DX005 (ip), vehicle: water): 6 of 10 on day 30

CC1=C(C)C(=O)O[C@@H]([C@](C)(O)[C@]2(O)CC[C@@]3(O)[C@@H]4C[C@H]5O[C@]56CC=CC(=O)[C@]6(C)[C@H]4CC[C@]23C)C1
T/C (T/C endpoint: median tumor weight change, dose: 100.0 mg/kg/injection, schedule: Q01DX001 (ip), vehicle: saline, evaluated on day 32): 145 % of control | survivor count (T/C endpoint: median tumor weight change, dose: 800.0 mg/kg/injection, schedule: Q01DX001 (ip), vehicle: saline): 3 of 10 on day 32

O=C1c2ccccc2C(=O)c2c(NCCNCCO)ccc(NCCNCCO)c21
survivor count (T/C endpoint: median tumor weight (est.), dose: 62.5 mg/kg/injection, schedule: Q07DX005 (ip), vehicle: Klucel (hydroxypropylcellulose) (HPC)): 2 of 10 | survivor count (T/C endpoint: median tumor weight (est.), dose: 64.0 mg/kg/injection, schedule: Q01DX001 (ip), vehicle: water): 5 of 10 on day 33 | survivor count (T/C endpoint: median tumor weight (est.), dose: 64.0 mg/kg/injection, schedule: Q07DX005 (ip), vehicle: water): 3 of 10 and 6 of 10 | survivor count (T/C endpoint: median tumor weight (est.), dose: 125.0 mg/kg/injection, schedule: Q07DX005 (ip), vehicle: Klucel (hydroxypropylcellulose) (HPC)): 2 of 10 | survivor count (T/C endpoint: median tumor weight (est.), dose: 128.0 mg/kg/injection, schedule: Q01DX001 (ip), vehicle: water): 0 of 9 on day 33 | survivor count (T/C endpoint: median tumor weight (est.), dose: 256.0 mg/kg/injection, schedule: Q01DX001 (ip), vehicle: water): 0 of 10 on day 33

CCC(CC)COC(=O)c1ccccc1C(=O)OCC(CC)CC
T/C (T/C endpoint: median tumor weight (est.), dose: 50.0 mg/kg/injection, schedule: Q07DX005 (ip), vehicle: saline with Tween-80, evaluated on day 30): 132 % of control | T/C (T/C endpoint: median tumor weight (est.), dose: 100.0 mg/kg/injection, schedule: Q07DX005 (ip), vehicle: saline with Tween-80, evaluated on day 30): 126 % of control

COc1ccc(OC)c(Cc2cnc3nc(N)nc(N)c3c2C)c1
survivor count (T/C endpoint: median tumor weight change, dose: 125.0 mg/kg/injection, schedule: Q01DX001 (ip), vehicle: other): 6 of 10 on day 40 | survivor count (T/C endpoint: median tumor weight change, dose: 250.0 mg/kg/injection, schedule: Q01DX001 (ip), vehicle: other): 5 of 10 on day 40 | survivor count (T/C endpoint: median tumor weight change, dose: 500.0 mg/kg/injection, schedule: Q01DX001 (ip), vehicle: other): 0 of 10 on day 40
